Data source: PubChem BioAssay AID743454 (Peter MacCallum Cancer Centre, 2014)
Here is an unselected part of about 18,000 deposited reagents. 450 of all reagents (2.5%) count as active. 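Single biological run; no consistent viability z cut-off exists, so the class columns, not z-scores, define the calls.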 Unmarked entries are inactive.

Aim: 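Genes whose loss kills vorinostat-resistant colon cancer cells under vorinostat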 (primary screen)
System: human HCT116-VR colon cancer cells, selected for vorinostat resistance
Reagents: siRNA pool against human genes, 40 nM siRNA pool
Time to read-out: vorinostat for 24 h, read-out about 72 h after transfection
Treatment: vorinostat at 2.5 µM final
Read-out: 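Cell viability by CellTiter-Fluor and caspase 3/7 activity by luminescence, each scaled to mock wells per plate, duplicates averaged, then robust z-scored over all plates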
Scale: viability robust z-score: higher = more viable cells than screen typical; caspase robust z-score: higher = more caspase 3/7 activity than screen typical
Active means: 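Hits are knock-downs in viability class RV1/RV2 or caspase class CA1/CA2, excluding ones that killed cells in the no-drug cell-count arm; hits then retested with single siRNAs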

gene	viability hit class	caspase hit class	viability robust z-score	caspase robust z-score
AMACR (alpha-methylacyl-CoA racemase)	no change	no change	-0.82	-0.13
IER5 (immediate early response 5)	no change	no change	-0.76	0.48
FAM110A (family with sequence similarity 110 member A)	no change	no change	-0.7	-1.14
KLHL5 (kelch like family member 5)	no change	no change	-0.22	-0.6
MIR22HG (MIR22 host gene)	no change	no change	0.4	-1.25
NUDT3 (nudix hydrolase 3)	no change	no change	0.68	-0.18
TAS1R1 (taste 1 receptor member 1)	no change	no change	1.15	-0.44
OCA2 (OCA2 melanosomal transmembrane protein)	no change	no change	0.49	-0.72
FRAT2 (FRAT regulator of Wnt signaling pathway 2)	no change	no change	-0.1	0.76
SOX21 (SRY-box transcription factor 21)	no change	no change	-0.57	-0.07
NIPA2 (NIPA magnesium transporter 2)	no change	no change	-0.12	2.45
LRRC59 (leucine rich repeat containing 59)	no change	no change	-1.06	2.15
LGI4 (leucine rich repeat LGI family member 4)	no change	no change	-0.67	1.49
MMP23B (matrix metallopeptidase 23B)	no change	no change	0.77	-0.58
ARFGAP3 (ARF GTPase activating protein 3)	no change	no change	0.41	0.56
HPCAL4 (hippocalcin like 4)	no change	no change	-1.02	0.52
LRP8 (LDL receptor related protein 8)	no change	no change	0.34	1.17
ATF7 (activating transcription factor 7)	no change	no change	0	0.77
DDX12P (DEAD/H-box helicase 12, pseudogene)	no change	no change	0.15	-0.55
BLOC1S4 (biogenesis of lysosomal organelles complex 1 subunit 4)	no change	no change	0.02	0.5
TFB1M (transcription factor B1, mitochondrial)	no change	no change	-0.12	0.08
SLC22A5	no change	no change	-0.2	-0.64
RRAGD (Ras related GTP binding D)	no change	no change	-0.38	4.47
BRMS1 (BRMS1 transcriptional repressor and anoikis regulator)	no change	no change	-2.84	0.08
ZFYVE1 (zinc finger FYVE-type containing 1)	no change	no change	0.44	0.14
PDE6D (phosphodiesterase 6D)	no change	no change	0.48	-0.63
ERCC1 (ERCC excision repair 1, endonuclease non-catalytic subunit)	no change	no change	-1.08	0.99
LINGO1 (leucine rich repeat and Ig domain containing 1)	no change	no change	-1.01	-0.28
MICALL2 (MICAL like 2)	no change (active)	CA1 (caspase activation)	0.62	5.14
KCNIP3 (potassium voltage-gated channel interacting protein 3)	no change	no change	-0.88	3.1
SUCLG2 (succinate-CoA ligase GDP-forming subunit beta)	no change	no change	-1.06	-0.12
ZBTB35 (zinc finger and BTB domain containing 35)	no change	no change	0.45	0.58
DEFB119 (defensin beta 119)	no change	no change	-1.17	0.64
HYDIN (HYDIN axonemal central pair apparatus protein)	no change	no change	-0.12	1
DAGLA (diacylglycerol lipase alpha)	no change	no change	0.9	3.2
ABCC1	no change	no change	0.62	1.12
TRIM67 (tripartite motif containing 67)	no change	no change	1.42	-0.16
RUBCNL (rubicon like autophagy enhancer)	no change	no change	0.48	-0.11
CDC42EP4 (CDC42 effector protein 4)	no change	no change	0.09	3.04
RNF139 (ring finger protein 139)	no change	no change	1.28	-0.23

Quoted from above for reference:
gene	viability hit class	caspase hit class	viability robust z-score	caspase robust z-score
IER5 (immediate early response 5)	no change	no change	-0.76	0.48
FAM110A (family with sequence similarity 110 member A)	no change	no change	-0.7	-1.14
KLHL5 (kelch like family member 5)	no change	no change	-0.22	-0.6
MIR22HG (MIR22 host gene)	no change	no change	0.4	-1.25
NUDT3 (nudix hydrolase 3)	no change	no change	0.68	-0.18
TAS1R1 (taste 1 receptor member 1)	no change	no change	1.15	-0.44
OCA2 (OCA2 melanosomal transmembrane protein)	no change	no change	0.49	-0.72
FRAT2 (FRAT regulator of Wnt signaling pathway 2)	no change	no change	-0.1	0.76
SOX21 (SRY-box transcription factor 21)	no change	no change	-0.57	-0.07
NIPA2 (NIPA magnesium transporter 2)	no change	no change	-0.12	2.45
LRRC59 (leucine rich repeat containing 59)	no change	no change	-1.06	2.15

Additional records:
gene	viability hit class	caspase hit class	viability robust z-score	caspase robust z-score
ASB10 (ankyrin repeat and SOCS box containing 10)	no change	no change	-0.07	-0.36
DLK1 (delta like non-canonical Notch ligand 1)	no change	no change	0.66	-0.06
SERPINA11 (serpin family A member 11)	no change	no change	0.71	-0.11
GNL2 (G protein nucleolar 2)	no change	no change	-2.59	2.1
BSDC1 (BSD domain containing 1)	no change	no change	-0.09	-0.57
CTNNA1 (catenin alpha 1)	no change	no change	-0.22	-0.9
GFRA2 (GDNF family receptor alpha 2)	no change	no change	-0.1	-0.11
KHK (ketohexokinase)	no change	no change	0.24	-0.95
RNF115 (ring finger protein 115)	no change	no change	1.01	-0.18
CREB3L3 (cAMP responsive element binding protein 3 like 3)	no change	no change	-1.17	1
MIOX (myo-inositol oxygenase)	no change	no change	-2.33	4.54
DNAJC2 (DnaJ heat shock protein family (Hsp40) member C2)	no change	no change	-0.42	-0.3
LGALS13 (galectin 13)	no change	no change	1.61	-1
ASAP2 (ArfGAP with SH3 domain, ankyrin repeat and PH domain 2)	no change	no change	-0.38	1.4
GCAT (glycine C-acetyltransferase)	no change	no change	-0.6	0.76
ADGRL1 (adhesion G protein-coupled receptor L1)	no change	no change	0.68	-0.77
SNX17 (sorting nexin 17)	no change	no change	0.24	-0.04
CT47A6 (cancer/testis antigen family 47 member A6)	no change	no change	1.42	0.59
DYRK3 (dual specificity tyrosine phosphorylation regulated kinase 3)	no change	no change	0.22	-0.08
CXCL13 (C-X-C motif chemokine ligand 13)	no change	no change	1.1	-0.79
HS2ST1 (heparan sulfate 2-O-sulfotransferase 1)	no change	no change	-0.15	0.38
ACSF3 (acyl-CoA synthetase family member 3)	no change	no change	-1.09	0.24
FGGY (FGGY carbohydrate kinase domain containing)	no change	no change	-0.34	-1.01
POF1B (POF1B actin binding protein)	no change	no change	-0.44	-0.85
CHIC1 (cysteine rich hydrophobic domain 1)	no change	no change	-0.93	0.02
PADI3 (peptidyl arginine deiminase 3)	no change	no change	0.61	1.66
ASB14 (ankyrin repeat and SOCS box containing 14)	no change	no change	-0.22	0.44
CCDC82 (coiled-coil domain containing 82)	no change	no change	0.59	1.64
PPA2 (inorganic pyrophosphatase 2)	no change	no change	-1.02	0.84
CCNH (cyclin H)	no change	no change	0.69	-0.44
CDK1 (cyclin dependent kinase 1)	no change	no change	-1.12	-1
FZD9 (frizzled class receptor 9)	no change	no change	1.39	-0.23
KMT5C (lysine methyltransferase 5C)	no change	no change	-1.36	0.88
